Data taken from PubChem BioAssay AID977630, deposited by Broad Institute (2014).

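Mixed E. coli culture in which the wild-type GFP-labelled strain's fluorescence is read after 24 h, reported as change in activity. Percent-style change in GFP activity at 50 µM; values more negative mean stronger inhibition. Active needs green reporter loss at least twice the red loss with limited overall growth inhibition; inconclusive means no clear call.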

Common to all entries: at 50 µM (top of the series). All entries here are filed as inconclusive. These entries are mostly ones the record files as inconclusive; other results of the assay are not listed here.

Cc1ccc(NC(=O)C[n+]2cc(-c3ccccc3)n3c2CCC3)c(C)c1 gave activity change -5.597. For CCn1nc(C)cc1C(=O)N1CCCC(C(=O)c2ccc3ccccc3c2)C1 (centres unmarked) the result was activity change -3.18. O=C(CN1CCCC1)Nc1ccccc1Sc1ccc(Cl)cc1 gave activity change -4.184. COC(=O)CC1COc2ccccc2N1C(=O)c1ccc(Br)cc1 (centres unmarked) gave activity change -22.04.

For O=C(Nc1nc(-c2ccc3ccccc3c2)cs1)C1CCN(S(=O)(=O)c2cccs2)CC1 the result was activity change 46.67. CCN(CC)CCN(C(=O)C1CCCCC1)c1nc2cc3c(cc2s1)OCO3 read activity change -29.53. c1ccc(Cc2nc3ccccc3s2)cc1 gave activity change -18.31. CN1C(=O)c2cccc3c(S(=O)(=O)NCCc4ccccc4)ccc1c23 read activity change -21.06.

With CCCN(Cc1ccco1)S(=O)(=O)c1ccc(OC)c(OC)c1 the assay gave activity change -24.61. Result for COc1cc(C(N)=O)cc(Br)c1OCc1ccccc1 was activity change -30.55. For O=C(NCc1ccccc1)c1ccc(-c2ccccc2F)o1 the result was activity change -27.76. COC(=O)c1ccc(CCc2cc(O)c(Br)cc2O)cc1 gave activity change -21.41.

O=C(COn1nnc2ccc(C(F)(F)F)cc21)Nc1c(Cl)cccc1Cl read activity change 12.36. Result for Cc1c(-c2cccc(Cl)c2)nc2ccccc2c1C(=O)N1CCC2(CC1)OCCO2 was activity change 27.24. O=C(O)c1cc(-c2cccs2)nn1-c1cccc(Cl)c1 gave activity change -33.06. With CCOC(=O)CCSc1n[nH]c(=S)s1 the assay gave activity change 19.24.

C[C@@H](Nc1nc(-c2ccccc2)nc2c1oc1ccccc12)C(=O)O read activity change 11.1. Cc1ccccc1-n1nnnc1SCCCC(=O)c1ccc(F)cc1 gave activity change -19.55. COc1ccc(C(=O)C2CCCN(C(=O)c3noc4c3CCCC4)C2)cc1F (centres unmarked) gave activity change -15.71. COC(=O)c1ccccc1OCCOCCOc1cccc2ccc(C)nc12 read activity change -24.82.

With CC(C)(C)c1ccc(CCC2OCC(CN3CCOCC3)O2)cc1 (centres unmarked) the assay gave activity change -22.96. For COc1ccc(C2CC(=O)CCN2S(=O)(=O)c2ccc(C)cc2)cc1 (centres unmarked) the result was activity change -12.52. Result for COc1cc2c(c(OC)c1OC)C(c1ccc3c(c1)OCO3)CC(=O)O2 (centres unmarked) was activity change 1.123. Result for Cc1cccc(-c2cc3nc4c(c(N5CCOCC5)n3n2)CCCC4)c1 was activity change -41.75.

For COc1cccc(NC(=O)COC(=O)Cc2ccccc2[N+](=O)[O-])c1 the result was activity change -0.296. With COc1cccc(C(=O)NC(C)c2ccc(Br)cc2)c1 (centres unmarked) the assay gave activity change -3.555. Result for Cc1ccc(CNS(=O)(=O)c2ccc3c(c2)NC(=O)CS3)cc1 was activity change -17.62. COCCCn1c(C)cc(C(=O)COC(=O)CCc2nc3ccccc3c(=O)[nH]2)c1C read activity change -19.14.

NC(=O)c1ccccc1OCCOc1ccc(Br)cc1 gave activity change -8.711. Cc1sc2ncnc(N3CCCC(C)C3)c2c1C (centres unmarked) read activity change -33.16. Cc1cc(Br)ccc1SCC(=O)OCC(=O)NCc1ccco1 gave activity change -25.19. Cc1ccc(Nc2nc(C(=O)NCC3CCCO3)cs2)cc1 (centres unmarked) read activity change 8.269.

O=C(COc1cccc2c1CCN(Cc1ccccc1F)C2=O)N1CCCCC1 gave activity change -19.37. For O=C(O)c1ccccc1-c1ccccc1C(=O)Nc1ccc2c(c1)CCC2 the result was activity change -33.19. CN(C)S(=O)(=O)c1cccc(C(=O)Nc2ccc3c(c2)CCC3)c1 gave activity change -34.61. CCOc1ccc(S(=O)(=O)N(C)c2ccc(OCC(=O)Nc3ccc4[nH]c(=O)[nH]c4c3)cc2)cc1 read activity change -39.09.

COc1ccccc1-c1ccc(SCc2cccc(F)c2)nn1 gave activity change -33.04. CC[N+](CC)(CC#Cc1ccccc1)CC(=O)c1ccc(Cl)cc1 read activity change 1.698. For CCc1ccn2cc(-c3ccc4c(c3)OCO4)nc2c1 the result was activity change -17.65. Cc1nc(Sc2ccc(Cl)cc2)c(C#N)c(C)c1[N+](=O)[O-] gave activity change -30.88.

O=C(O)CCN(Cc1ccccc1)S(=O)(=O)c1ccc(Cl)cc1F read activity change -31.51. For O=S1(=O)N[C@@H](Cc2ccccc2)COc2cc(N3CCC[C@H]3CO)ccc21 the result was activity change -30.35. Result for CCCN(CC1CC1)C(=O)CSc1ncnc2sccc12 was activity change -16.13.

4 of the entries, repeated:

compound	activity change
CN1C(=O)c2cccc3c(S(=O)(=O)NCCc4ccccc4)ccc1c23	-21.06
COc1ccccc1-c1ccc(SCc2cccc(F)c2)nn1	-33.04
COC(=O)c1ccc(CCc2cc(O)c(Br)cc2O)cc1	-21.41
CN(C)S(=O)(=O)c1cccc(C(=O)Nc2ccc3c(c2)CCC3)c1	-34.61